This assay addresses Flag-tagged Siglec-6 (human) (UniProt O43699). The assay is described as follows: co-IP; HTR-8/SVneo cells with Flag-tagged Siglec-6, lysed in IP lysis buffer; lysates incubated with anti-flag, anti-SHP1 or anti-SHP2 antibodies overnight at 4 °C, protein A/G beads, washed five times, Western blot.

Amino acid sequences for entries named in this document (tags omitted). Residues count along the entry.
UniProt O43699, residues 27-453: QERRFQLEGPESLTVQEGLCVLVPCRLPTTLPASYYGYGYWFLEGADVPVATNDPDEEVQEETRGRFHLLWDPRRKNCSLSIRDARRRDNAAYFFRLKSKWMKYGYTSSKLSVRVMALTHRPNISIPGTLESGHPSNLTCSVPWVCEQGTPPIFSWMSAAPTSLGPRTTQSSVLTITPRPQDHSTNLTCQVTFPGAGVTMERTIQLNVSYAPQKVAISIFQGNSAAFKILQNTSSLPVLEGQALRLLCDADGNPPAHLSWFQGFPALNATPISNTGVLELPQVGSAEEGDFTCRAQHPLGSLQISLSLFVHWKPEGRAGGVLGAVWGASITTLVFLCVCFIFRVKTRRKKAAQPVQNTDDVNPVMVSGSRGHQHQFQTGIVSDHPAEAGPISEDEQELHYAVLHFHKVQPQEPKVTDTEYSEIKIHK
UniProt P29350: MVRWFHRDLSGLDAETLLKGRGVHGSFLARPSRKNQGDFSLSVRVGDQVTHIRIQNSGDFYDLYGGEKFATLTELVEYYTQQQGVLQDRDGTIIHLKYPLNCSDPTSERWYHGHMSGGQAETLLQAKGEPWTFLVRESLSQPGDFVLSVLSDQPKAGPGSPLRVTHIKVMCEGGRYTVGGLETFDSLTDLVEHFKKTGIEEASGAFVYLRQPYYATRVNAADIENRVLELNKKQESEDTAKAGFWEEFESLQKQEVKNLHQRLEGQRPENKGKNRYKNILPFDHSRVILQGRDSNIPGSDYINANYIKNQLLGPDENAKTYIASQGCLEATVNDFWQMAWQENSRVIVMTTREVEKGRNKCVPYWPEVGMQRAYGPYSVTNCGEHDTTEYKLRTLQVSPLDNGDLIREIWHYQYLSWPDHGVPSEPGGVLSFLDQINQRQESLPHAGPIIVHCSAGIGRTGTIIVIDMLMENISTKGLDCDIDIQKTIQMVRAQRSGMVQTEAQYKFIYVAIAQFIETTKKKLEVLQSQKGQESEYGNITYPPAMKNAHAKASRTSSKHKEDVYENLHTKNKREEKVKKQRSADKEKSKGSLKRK

Results are given in words; binding and its absence hold for the method and conditions named. Binding seen in cells or lysates may run through a third protein. Some binding calls cover weakened binding; strength is not graded here.

Take “SHP1 (from UniProt P29350 1-595) (enzyme)”: the binding result is “binds”.

Values taken from article PMC11265165.
